From the supplement of paper PMC12595434, “Development of retinoid nuclear receptor pathway antagonists through targeting aldehyde dehydrogenase 1A3” (iScience, 2025)
Some of the results follow. Single values of this set are uncertain.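 Many melting curves are irregular; where none melted, Tm was taken as 64 °C.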

Amino acid sequences for entries named in this document (tags omitted). A change or cut given only in a name is not applied to a line headed by its entry.
UniProt P50579: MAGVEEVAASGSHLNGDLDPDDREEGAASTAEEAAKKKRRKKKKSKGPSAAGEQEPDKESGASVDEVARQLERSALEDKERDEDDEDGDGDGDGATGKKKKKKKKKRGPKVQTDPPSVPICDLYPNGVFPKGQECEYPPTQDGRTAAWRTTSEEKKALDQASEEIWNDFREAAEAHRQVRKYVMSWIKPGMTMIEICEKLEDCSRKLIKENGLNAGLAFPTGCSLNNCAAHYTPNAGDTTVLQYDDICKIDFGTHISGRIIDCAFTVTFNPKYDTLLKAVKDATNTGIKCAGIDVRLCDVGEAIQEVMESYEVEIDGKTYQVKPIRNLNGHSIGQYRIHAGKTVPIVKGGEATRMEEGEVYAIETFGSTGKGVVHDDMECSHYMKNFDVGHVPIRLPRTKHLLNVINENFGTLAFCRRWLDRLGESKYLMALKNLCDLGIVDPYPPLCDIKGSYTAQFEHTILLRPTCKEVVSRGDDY
UniProt P49917: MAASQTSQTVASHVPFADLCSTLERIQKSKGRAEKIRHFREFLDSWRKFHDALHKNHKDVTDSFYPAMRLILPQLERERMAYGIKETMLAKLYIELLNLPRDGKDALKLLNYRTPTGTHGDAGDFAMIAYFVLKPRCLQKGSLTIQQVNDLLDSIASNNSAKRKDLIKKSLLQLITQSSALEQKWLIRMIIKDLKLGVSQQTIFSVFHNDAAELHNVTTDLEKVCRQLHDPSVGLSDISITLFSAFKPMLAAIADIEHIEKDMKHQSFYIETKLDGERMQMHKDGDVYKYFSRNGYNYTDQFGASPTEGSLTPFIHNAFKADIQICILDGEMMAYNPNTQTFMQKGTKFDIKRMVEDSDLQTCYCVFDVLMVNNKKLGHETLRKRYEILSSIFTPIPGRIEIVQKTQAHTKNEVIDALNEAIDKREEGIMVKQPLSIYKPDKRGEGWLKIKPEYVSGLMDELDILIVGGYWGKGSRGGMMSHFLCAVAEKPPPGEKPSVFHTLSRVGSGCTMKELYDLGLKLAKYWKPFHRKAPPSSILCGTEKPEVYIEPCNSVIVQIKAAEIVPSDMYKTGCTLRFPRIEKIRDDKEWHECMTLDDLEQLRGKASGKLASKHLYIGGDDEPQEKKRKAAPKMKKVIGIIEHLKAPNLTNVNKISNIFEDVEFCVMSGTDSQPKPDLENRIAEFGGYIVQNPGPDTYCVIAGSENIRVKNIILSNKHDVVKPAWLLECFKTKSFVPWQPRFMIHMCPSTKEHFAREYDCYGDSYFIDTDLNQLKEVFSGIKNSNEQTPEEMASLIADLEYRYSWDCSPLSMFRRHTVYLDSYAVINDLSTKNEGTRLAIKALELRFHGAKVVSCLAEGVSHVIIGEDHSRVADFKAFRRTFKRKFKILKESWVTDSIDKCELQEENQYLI
UniProt P47756, whole entry: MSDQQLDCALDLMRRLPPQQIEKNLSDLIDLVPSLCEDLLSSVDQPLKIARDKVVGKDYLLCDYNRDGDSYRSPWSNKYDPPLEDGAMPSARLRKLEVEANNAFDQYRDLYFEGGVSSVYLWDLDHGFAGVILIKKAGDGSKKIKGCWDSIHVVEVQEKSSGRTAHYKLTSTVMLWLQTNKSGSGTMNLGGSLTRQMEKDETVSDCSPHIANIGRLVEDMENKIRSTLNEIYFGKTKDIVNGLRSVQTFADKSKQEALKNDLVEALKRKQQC
UniProt P49773: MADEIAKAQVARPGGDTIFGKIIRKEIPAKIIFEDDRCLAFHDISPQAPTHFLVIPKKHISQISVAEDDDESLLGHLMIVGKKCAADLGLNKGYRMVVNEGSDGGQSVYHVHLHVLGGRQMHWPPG
UniProt P49662: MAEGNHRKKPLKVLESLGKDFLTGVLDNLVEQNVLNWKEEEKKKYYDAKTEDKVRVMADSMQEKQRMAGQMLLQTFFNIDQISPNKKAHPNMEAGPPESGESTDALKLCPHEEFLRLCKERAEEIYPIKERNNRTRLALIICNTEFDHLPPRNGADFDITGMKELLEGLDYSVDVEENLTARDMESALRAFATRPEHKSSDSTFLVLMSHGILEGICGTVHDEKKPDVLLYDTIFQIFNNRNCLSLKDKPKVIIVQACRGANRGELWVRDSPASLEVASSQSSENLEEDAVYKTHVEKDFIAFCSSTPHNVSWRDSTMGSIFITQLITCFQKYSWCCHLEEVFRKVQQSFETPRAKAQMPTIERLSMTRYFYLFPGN
UniProt P49593: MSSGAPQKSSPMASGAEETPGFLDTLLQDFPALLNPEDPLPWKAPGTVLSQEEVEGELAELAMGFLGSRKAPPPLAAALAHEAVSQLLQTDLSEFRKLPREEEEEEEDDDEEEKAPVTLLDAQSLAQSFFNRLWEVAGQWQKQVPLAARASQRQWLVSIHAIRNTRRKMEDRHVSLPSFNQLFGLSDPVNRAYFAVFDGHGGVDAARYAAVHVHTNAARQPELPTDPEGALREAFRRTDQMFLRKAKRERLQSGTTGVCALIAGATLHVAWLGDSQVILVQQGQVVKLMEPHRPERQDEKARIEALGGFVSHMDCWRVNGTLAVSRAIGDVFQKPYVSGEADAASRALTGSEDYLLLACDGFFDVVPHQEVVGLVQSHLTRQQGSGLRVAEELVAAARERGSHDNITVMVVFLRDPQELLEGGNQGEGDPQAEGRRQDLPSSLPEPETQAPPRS
UniProt P49368: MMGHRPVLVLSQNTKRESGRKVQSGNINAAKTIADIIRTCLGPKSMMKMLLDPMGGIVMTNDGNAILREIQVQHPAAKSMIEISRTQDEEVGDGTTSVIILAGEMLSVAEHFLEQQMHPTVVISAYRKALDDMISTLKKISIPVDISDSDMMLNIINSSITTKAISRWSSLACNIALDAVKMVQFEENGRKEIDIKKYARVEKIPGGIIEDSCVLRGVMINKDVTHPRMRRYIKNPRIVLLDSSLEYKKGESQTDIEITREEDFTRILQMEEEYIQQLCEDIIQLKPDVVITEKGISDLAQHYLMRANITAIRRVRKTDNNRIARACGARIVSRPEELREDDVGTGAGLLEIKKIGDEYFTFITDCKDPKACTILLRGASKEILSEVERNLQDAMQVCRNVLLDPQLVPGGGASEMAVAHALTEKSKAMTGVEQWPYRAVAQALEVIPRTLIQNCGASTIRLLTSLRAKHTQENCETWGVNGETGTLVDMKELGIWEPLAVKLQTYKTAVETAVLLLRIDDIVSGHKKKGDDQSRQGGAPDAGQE
UniProt P50895: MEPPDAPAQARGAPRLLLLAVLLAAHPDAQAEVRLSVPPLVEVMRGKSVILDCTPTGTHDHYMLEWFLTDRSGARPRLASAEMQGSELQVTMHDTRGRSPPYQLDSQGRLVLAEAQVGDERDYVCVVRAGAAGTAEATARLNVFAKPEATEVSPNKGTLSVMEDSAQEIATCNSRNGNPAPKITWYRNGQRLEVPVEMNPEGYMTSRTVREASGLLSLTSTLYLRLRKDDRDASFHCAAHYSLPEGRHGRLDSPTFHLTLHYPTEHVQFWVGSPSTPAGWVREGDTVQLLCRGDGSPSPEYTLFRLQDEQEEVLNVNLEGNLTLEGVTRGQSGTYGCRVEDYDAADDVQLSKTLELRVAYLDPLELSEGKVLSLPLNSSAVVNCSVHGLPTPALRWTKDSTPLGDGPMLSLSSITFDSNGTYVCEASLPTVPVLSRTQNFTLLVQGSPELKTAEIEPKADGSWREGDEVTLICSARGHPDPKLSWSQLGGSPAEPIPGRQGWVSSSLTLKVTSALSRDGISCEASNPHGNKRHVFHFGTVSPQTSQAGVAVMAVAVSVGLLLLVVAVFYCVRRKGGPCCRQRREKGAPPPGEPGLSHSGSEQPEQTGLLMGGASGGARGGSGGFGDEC
UniProt P49720: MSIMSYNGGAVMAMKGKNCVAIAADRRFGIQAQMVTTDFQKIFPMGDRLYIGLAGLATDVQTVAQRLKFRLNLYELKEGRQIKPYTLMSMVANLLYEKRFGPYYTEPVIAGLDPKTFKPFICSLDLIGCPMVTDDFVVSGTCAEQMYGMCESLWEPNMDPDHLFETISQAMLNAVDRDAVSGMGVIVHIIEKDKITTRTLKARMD
UniProt P49591: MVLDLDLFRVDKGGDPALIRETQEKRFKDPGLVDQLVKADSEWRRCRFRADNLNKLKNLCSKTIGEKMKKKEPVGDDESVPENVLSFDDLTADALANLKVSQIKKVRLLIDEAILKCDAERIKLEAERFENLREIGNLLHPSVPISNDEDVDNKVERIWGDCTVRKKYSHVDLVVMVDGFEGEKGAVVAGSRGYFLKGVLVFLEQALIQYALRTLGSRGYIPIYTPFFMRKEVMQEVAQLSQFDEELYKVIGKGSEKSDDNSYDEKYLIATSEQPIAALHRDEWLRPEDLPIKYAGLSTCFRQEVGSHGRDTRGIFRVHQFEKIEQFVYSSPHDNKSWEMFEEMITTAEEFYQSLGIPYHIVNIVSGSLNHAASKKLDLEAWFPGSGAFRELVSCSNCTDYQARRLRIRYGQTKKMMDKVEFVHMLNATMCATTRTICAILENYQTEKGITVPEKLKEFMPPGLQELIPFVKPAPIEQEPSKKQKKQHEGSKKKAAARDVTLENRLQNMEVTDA
UniProt P50502: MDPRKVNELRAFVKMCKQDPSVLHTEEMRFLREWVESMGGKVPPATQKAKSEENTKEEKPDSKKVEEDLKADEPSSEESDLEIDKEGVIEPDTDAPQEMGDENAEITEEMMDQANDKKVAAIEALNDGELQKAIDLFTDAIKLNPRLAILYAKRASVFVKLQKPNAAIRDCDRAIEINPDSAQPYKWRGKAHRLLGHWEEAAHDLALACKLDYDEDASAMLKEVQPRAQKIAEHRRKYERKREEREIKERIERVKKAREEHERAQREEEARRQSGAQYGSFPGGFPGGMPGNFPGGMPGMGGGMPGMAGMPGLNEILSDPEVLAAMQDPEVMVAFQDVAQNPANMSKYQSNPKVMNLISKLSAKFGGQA
UniProt P42575: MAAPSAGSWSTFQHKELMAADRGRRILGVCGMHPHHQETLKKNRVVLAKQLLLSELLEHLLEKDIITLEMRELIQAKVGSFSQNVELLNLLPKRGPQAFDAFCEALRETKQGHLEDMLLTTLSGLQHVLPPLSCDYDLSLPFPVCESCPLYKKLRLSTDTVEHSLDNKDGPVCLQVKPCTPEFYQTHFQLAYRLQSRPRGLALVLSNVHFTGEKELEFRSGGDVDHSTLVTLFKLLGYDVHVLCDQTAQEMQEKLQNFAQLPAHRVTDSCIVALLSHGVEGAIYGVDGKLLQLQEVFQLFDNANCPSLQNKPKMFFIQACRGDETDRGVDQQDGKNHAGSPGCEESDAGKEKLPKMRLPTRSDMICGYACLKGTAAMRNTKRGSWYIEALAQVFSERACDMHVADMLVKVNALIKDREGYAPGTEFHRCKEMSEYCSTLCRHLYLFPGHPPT
UniProt P48556: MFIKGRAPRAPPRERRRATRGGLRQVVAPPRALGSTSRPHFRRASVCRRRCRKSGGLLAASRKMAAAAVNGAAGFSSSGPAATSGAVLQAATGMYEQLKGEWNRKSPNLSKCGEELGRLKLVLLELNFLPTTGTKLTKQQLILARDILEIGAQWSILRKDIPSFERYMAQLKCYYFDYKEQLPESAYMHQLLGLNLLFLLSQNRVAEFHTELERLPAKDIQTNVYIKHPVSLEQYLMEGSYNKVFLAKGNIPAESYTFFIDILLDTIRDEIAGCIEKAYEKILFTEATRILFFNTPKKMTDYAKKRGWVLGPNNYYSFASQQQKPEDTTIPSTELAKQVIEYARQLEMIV
UniProt P42574: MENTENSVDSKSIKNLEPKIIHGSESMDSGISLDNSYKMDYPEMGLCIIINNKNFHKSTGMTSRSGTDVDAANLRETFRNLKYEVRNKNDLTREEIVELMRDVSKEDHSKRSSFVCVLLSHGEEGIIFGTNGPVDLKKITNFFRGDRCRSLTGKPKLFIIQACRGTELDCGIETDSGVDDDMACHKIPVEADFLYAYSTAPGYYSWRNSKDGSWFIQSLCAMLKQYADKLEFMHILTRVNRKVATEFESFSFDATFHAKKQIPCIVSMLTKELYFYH
UniProt P51153: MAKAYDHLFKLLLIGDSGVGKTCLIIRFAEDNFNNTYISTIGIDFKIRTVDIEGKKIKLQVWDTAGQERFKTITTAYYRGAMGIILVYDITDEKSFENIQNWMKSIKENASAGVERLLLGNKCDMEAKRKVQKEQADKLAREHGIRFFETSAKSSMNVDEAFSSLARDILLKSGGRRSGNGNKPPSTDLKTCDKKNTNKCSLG
UniProt P46108: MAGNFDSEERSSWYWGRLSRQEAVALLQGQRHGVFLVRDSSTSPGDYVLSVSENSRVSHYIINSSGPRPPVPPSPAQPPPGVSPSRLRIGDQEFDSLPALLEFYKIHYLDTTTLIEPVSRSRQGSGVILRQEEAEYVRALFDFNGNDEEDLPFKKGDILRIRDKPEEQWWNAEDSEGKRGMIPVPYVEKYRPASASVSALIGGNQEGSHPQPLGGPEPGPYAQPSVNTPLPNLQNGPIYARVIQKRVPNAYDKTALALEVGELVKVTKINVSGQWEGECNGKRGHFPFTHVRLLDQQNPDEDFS

compound: CCc1cnccc1C(=O)Nc1cc2c(cc1F)NC(=O)CC2; assay: melting temperature shift (DMSO Tm minus MBE1-treated Tm) in cellular thermal proteome profiling; higher = less thermal stabilization by MBE1 (negative = stabilized by MBE1); conditions: A375; MBE1 concentration: 100 nM

Target	melting temperature shift
METAP2 (UniProt P50579)	-0.788 °C
LIG4 (UniProt P49917)	-0.431 °C
MLH1 (UniProt P40692)	-0.506 °C
UniProt P49918	-0.409 °C
CCT8 (UniProt P50990)	-1.32 °C
CAPZB (UniProt P47756)	-0.47 °C
HINT1 (UniProt P49773)	0.879 °C
ALDH5A1 (UniProt P51649)	-1.01 °C
HSD17B4 (UniProt P51659)	-0.771 °C
CDK9 (UniProt P50750)	1.4 °C
CASP4 (UniProt P49662)	0.556 °C
RPL13A (UniProt P40429)	-0.855 °C
PRCP (UniProt P42785)	-2.91 °C
STAT5B (UniProt P51692)	-0.53 °C
UTRN (UniProt P46939)	-0.731 °C
PPM1F (UniProt P49593)	1.15 °C
CCT3 (UniProt P49368)	-0.682 °C
GNAQ (UniProt P50148)	-1.11 °C
UniProt P50895	-3.62 °C

Target	melting temperature shift
NSF (UniProt P46459)	0.214 °C
CAPZA2 (UniProt P47755)	-0.977 °C
HPCAL1 (UniProt P37235)	-2.06 °C
UniProt P46379	0.617 °C
PSMB3 (UniProt P49720)	-4.1 °C
TUFM (UniProt P49411)	0.434 °C
SARS (UniProt P49591)	-0.704 °C
ST13 (UniProt P50502)	-0.511 °C
CASP2 (UniProt P42575)	3.13 °C
ACADSB (UniProt P45954)	-0.698 °C
STT3A (UniProt P46977)	-0.423 °C
ALDH7A1 (UniProt P49419)	-0.255 °C
PSMD8 (UniProt P48556)	-0.917 °C
CASP3 (UniProt P42574)	-4.39 °C
RPS10 (UniProt P46783)	-0.0305 °C
RAB13 (UniProt P51153)	-1.07 °C
CRK (UniProt P46108)	0.25 °C
SRP14 (UniProt P37108)	-2.56 °C
HSPA9 (UniProt P38646)	-1.02 °C

same assay, conditions: A375; MBE1 concentration: 1 uM

Target	melting temperature shift
METAP2 (UniProt P50579)	-0.25 °C
LIG4 (UniProt P49917)	0.503 °C
MLH1 (UniProt P40692)	-0.115 °C
UniProt P49918	-0.355 °C
CCT8 (UniProt P50990)	-1.8 °C
CAPZB (UniProt P47756)	-1.19 °C
HINT1 (UniProt P49773)	-2.53 °C
ALDH5A1 (UniProt P51649)	0.0916 °C
HSD17B4 (UniProt P51659)	0.496 °C
CDK9 (UniProt P50750)	0.0977 °C
CASP4 (UniProt P49662)	-0.159 °C
RPL13A (UniProt P40429)	-1.58 °C
PRCP (UniProt P42785)	0.549 °C
STAT5B (UniProt P51692)	-0.626 °C
UTRN (UniProt P46939)	-0.553 °C
PPM1F (UniProt P49593)	0.84 °C
CCT3 (UniProt P49368)	-0.347 °C
GNAQ (UniProt P50148)	-0.0183 °C
UniProt P50895	-0.58 °C

Target	melting temperature shift
NSF (UniProt P46459)	-0.299 °C
CAPZA2 (UniProt P47755)	0.69 °C
HPCAL1 (UniProt P37235)	-1.63 °C
UniProt P46379	0.128 °C
PSMB3 (UniProt P49720)	-2.65 °C
TUFM (UniProt P49411)	0.293 °C
SARS (UniProt P49591)	0.376 °C
ST13 (UniProt P50502)	-0.226 °C
CASP2 (UniProt P42575)	-0.611 °C
ACADSB (UniProt P45954)	0.636 °C
STT3A (UniProt P46977)	0.194 °C
ALDH7A1 (UniProt P49419)	0.516 °C
PSMD8 (UniProt P48556)	0.543 °C
CASP3 (UniProt P42574)	1.72 °C
RPS10 (UniProt P46783)	0.647 °C
RAB13 (UniProt P51153)	-0.188 °C
CRK (UniProt P46108)	-0.397 °C
SRP14 (UniProt P37108)	-0.574 °C
HSPA9 (UniProt P38646)	-0.11 °C
